Measured values reported in PubChem BioAssay AID504648 (National Center for Advancing Translational Sciences (NCATS), 2011).
Out of some 390,000 compounds screened, about 610 (0.16%) were called active. This list was built around the results that the source calls inconclusive (neither active nor inactive); the mix of calls is not that of the screen. Calls follow the shape of the dose curve; as a rule, active = well fitted inhibition curve with a large enough effect; inconclusive = small, poorly fitted or top-dose-only effect, or effect the other way, or another doubt; inactive = no such curve, though single readings can be large or run the other way. A potency beside an inconclusive call is a rough fit, not a confirmed value.

assay: Nrf2 qHTS screen for inhibitors: counterscreen for cytotoxicity; settings: A549 ARE-Fluc cells, CellTiter-Fluor viability, 18-24 h; activity change, negative = cytotoxicity: at 46 µM (top of the series)
How it was run: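 A549 ARE_Fluc cells in 5% FBS OPTI-MEM were exposed to compounds in concentration-response for 18-24 h at 37 deg C. Viability was read by CellTiter-Fluor fluorescence (Ex 405/Em 525) after 30 min, before the luciferase read.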
% is scaled to controls: 0 for no effect and ±100 for the full control effect; potency is read from the fitted curve at half-maximal effect.

SMILES | Potency | activity change, negative = cytotoxicity
Cc1ccc(S(=O)(=O)N2CCCCC2)cc1C(=O)NCc1ccncc1 | inconclusive: 7.31 µM [activator, partial curve, poor fit] | 
O=C1NC(=S)S/C1=C\C=C\c1ccc([N+](=O)[O-])o1 | inconclusive: 29.1 µM [falling, single point] | 
COc1ccc(-c2ccn(-c3cccc(F)n3)n2)cc1 | inconclusive: 25.9 µM [falling, partial curve, poor fit] | 
CCOC(=O)c1c(NC(=O)C[n+]2ccc(N(C)C)cc2)sc(C)c1C | inactive | 
OC(COCC(F)(F)C(F)(F)C(F)(F)C(F)F)Cn1c2ccc(Cl)cc2c2cc(Cl)ccc21 (centres undefined) | inconclusive: 29.1 µM [falling, single point] | 
CCCN(CCC)CCCNC(=O)c1cn(CCOC)c(=O)c2c1c1ccccc1n2C |  | inactive: 0.319% [at 1.84 µM]
O=C(CCNS(=O)(=O)c1cccc(Cl)c1)OCC(=O)N1CCN(C(=O)c2ccco2)CC1 | inactive | 
CN1CCN(Cc2c(O)ccc3cc(-c4ccccn4)c(=O)oc23)CC1 | inconclusive: 14.6 µM [activator, partial curve] | 
CN(C)CCCNC(=O)C[C@H]1C[C@H](C(=O)N2CCCCC2)[C@@]2(CCc3ccccc3)c3[nH]c4ccc(Cl)cc4c3CCN2C1=O | inconclusive: 29.1 µM [falling, single point] | 
Cc1cc(C)c(S(=O)(=O)NCCSCc2ccco2)c(C)c1 | inconclusive: 0.92 µM [activator, full curve, poor fit] | 
CCCCC[n+]1ccn(C2=C([O-])c3ccccc3C(=O)/C2=N\S(=O)(=O)c2ccccc2)c1 | inconclusive: 29.1 µM [falling, single point] | 
NS(=O)(=O)c1ccc(Nc2c([N+](=O)[O-])cncc2[N+](=O)[O-])cc1 | inconclusive: 32.6 µM [falling, partial curve, poor fit] | 
COc1cccc(CN2CCN(CC(=O)NCCc3ccccc3)CC2)c1 | inconclusive: 29.1 µM [activator, partial curve, poor fit] | 
Cc1[nH]nc(-c2ccc(OCc3cnn(-c4ccccc4)c3)cc2O)c1Oc1ccc(Cl)cc1 | inconclusive: 20.6 µM [falling, partial curve, poor fit] | 
O=C1/C(=C/c2cccs2)SC(=S)N1C1CCS(=O)(=O)C1 (centres undefined) | inconclusive: 16.4 µM [falling, partial curve] | 
CCCCc1nc(Cl)c(C#N)c2c1CCCC2 | inconclusive: 23.1 µM [activator, single point] | 
Cc1cc(C)cc(NC(=S)NCc2ccc(F)cc2)c1 | inconclusive: 23.1 µM [activator, partial curve, poor fit] | 
Cc1cccc(NC(=S)/N=C(\N)Nc2nc(C)c3ccc(C)cc3n2)c1 | inconclusive: 8.2 µM [falling, partial curve, poor fit] | 
Cc1ccn2c(Nc3ccccc3C)c(-c3ccc(N4CCOCC4)cc3)nc2c1 | inconclusive: 23.1 µM [falling, partial curve, poor fit] | 
Cc1ccc(S(=O)(=O)NCCCNC(=O)N2CCOCC2)cc1 | inactive | 
Cc1ccc(C(=O)C2=C(O)C(=O)N(c3ncccn3)C2c2ccccc2F)o1 (centres undefined) | inactive | 
COC1(OC)C(/C=C/c2ccc(C)cc2)C(C#N)(C#N)C1(OC)OC (centres undefined) | inconclusive: 20.6 µM [falling, single point] | 

SMILES | Potency | activity change, negative = cytotoxicity
O=C1/C(=C\c2cccc([N+](=O)[O-])c2O)SC(=S)N1Cc1ccccc1 | inconclusive: 23.1 µM [falling, single point] | 
COc1ccccc1OCCn1c(C(C)O)nc2ccccc21 (centres undefined) | inactive | 
O=[N+]([O-])c1cccc(/C=N/Nc2nccnc2Cl)c1 | inactive | 
COc1ccc(NC(=O)CCc2nc3c(C)nn(-c4ccc(C)cc4)c3n(C)c2=O)c(OC)c1 | inconclusive: 29.1 µM [falling, single point] | 
COc1ccc(OC)c(NC(=O)c2nc(S(=O)(=O)Cc3ccccc3)ncc2Cl)c1 | inconclusive: 29.1 µM [falling, single point] | 
CCc1ccc(/C=C/c2c([N+](=O)[O-])c(=O)n(C)c(=O)n2C)cc1 | inconclusive: 18.4 µM [falling, single point] | 
COc1ccc(CCn2c(=S)[nH]c3cc(C(=O)NCc4ccco4)ccc3c2=O)cc1OC | inconclusive: 18.4 µM [falling, single point] | 
COc1cc2oc(=O)c(CC(=O)NCCc3ccccc3)c(C)c2cc1Cl | inactive | 
CC1=NN(c2ccc(C)c(C)c2)C(=O)/C1=C\C=C\c1ccc([N+](=O)[O-])o1 | inconclusive: 29.1 µM [falling, single point] | 
CCc1nc(SCC(=O)N2CCCc3ccccc32)c2oc3ccccc3c2n1 | inconclusive: 29.1 µM [falling, single point] | 
CCCCc1cc(O)c(CCCC)c(O)c1 | inactive | 
COC1=CC(=Cc2c(N)n3nc(CC(=O)N4CCCCC4)sc3nc2=O)C=C(OC)C1=O | inconclusive: 16.4 µM [activator, partial curve, poor fit] | 
O=S(=O)(c1cccc(-c2csc(N/N=C/c3ccco3)n2)c1)N1CCOCC1 | inconclusive: 11.6 µM [falling, partial curve, poor fit] | 
COc1ccc(C(CC(=O)N2CCCC2)c2c(OC)cc(OC)c3ccc(=O)oc23)cc1 (centres undefined) | inconclusive: 18.4 µM [falling, partial curve, poor fit] | 
CC1=NN(c2ccccc2)C(=O)C1C(=O)c1ccc(Cl)cc1 (centres undefined) | inconclusive: 20.6 µM [falling, single point] | 
CCc1ccc(NC(=O)c2cnc(N3CCN(c4ccccn4)CC3)c3ccccc23)cc1 | inconclusive: 23.1 µM [falling, partial curve, poor fit] | 
COc1cc2c(c(OC)c1OC)-c1ccc(SC)c(=O)cc1C(NC(=O)c1ccccc1)CC2 (centres undefined) | active: 18.4 µM | 
Cc1ccc(-c2nnc(N3CCN(C(=O)COc4cccc(C)c4)CC3)c3ccccc23)cc1 | inactive | 
Cc1cn2c(N)c(C=C3C=C(Cl)C(=O)C(Cl)=C3)c(=O)nc2s1 | inconclusive: 20.6 µM [falling, partial curve] | 
O=C(CCl)Nc1cccc2ncccc12 | active: 23.1 µM | 
CCOCCc1nn2c(=O)cc(COC(=O)COc3ccc(C)c(C)c3)nc2s1 | inactive | 
COc1c(C)cccc1C(=O)Nc1ccc(Cl)c(-c2nc3cc(C)ccc3o2)c1 | inactive | 

Exported as labelled records: three of the compounds above.
CCOC(=O)c1c(NC(=O)C[n+]2ccc(N(C)C)cc2)sc(C)c1C
  Potency: inactive
OC(COCC(F)(F)C(F)(F)C(F)(F)C(F)F)Cn1c2ccc(Cl)cc2c2cc(Cl)ccc21 (centres undefined)
  Potency: inconclusive: 29.1 µM [falling, single point]
COC1=CC(=Cc2c(N)n3nc(CC(=O)N4CCCCC4)sc3nc2=O)C=C(OC)C1=O
  Potency: inconclusive: 16.4 µM [activator, partial curve, poor fit]

The listing continues.

SMILES | Potency | activity change, negative = cytotoxicity
Cc1cc2cc(CNC(=O)c3ccc(C)c([N+](=O)[O-])c3)ccc2[nH]1 | inconclusive: 0.231 µM [activator, full curve, poor fit] | 
CCOc1ccccc1NC(=O)Nc1ccc2nc(N3CCN(C)CC3)cc(C)c2c1 | inconclusive: 29.1 µM [falling, single point] | 
CC(CCc1ccccc1)NC(=O)CNC(=S)N(Cc1cccs1)C1CCCC1 (centres undefined) | inconclusive: 20.6 µM [falling, single point] | 
Cc1cccc(NC(=O)CN2C(=O)CCS(=O)(=O)c3ccccc32)c1C | inconclusive: 8.2 µM [activator, partial curve, poor fit] | 
CCn1c(N2CCN(S(=O)(=O)c3ccccc3C(F)(F)F)CC2)nc2ccccc21 | inactive | 
COc1ccc(CN2CCN(C(=O)c3ccc(CNS(=O)(=O)c4ccc(C)cc4)cc3)CC2)c(OC)c1OC | inconclusive: 29.1 µM [activator, partial curve, poor fit] | 
CCc1ccc(CN(C(=O)c2ccc(OC)cc2)C2CCS(=O)(=O)C2)cc1 (centres undefined) | inactive | 
O=[N+]([O-])c1ccc(N2CCC(O)CC2)nc1 | inconclusive: 20.6 µM [falling, single point] | 
COc1ccc(-c2csc3ncnc(N4CCN(c5ccccc5Cl)CC4)c23)cc1 | inactive | 
COc1ccc(N2C(=O)[C@@H]3[C@H](C2=O)[C@H](C(C)=O)N2c4ccccc4C=C[C@@H]32)cc1 | inconclusive: 29.1 µM [falling, single point] | 
COc1cc([N+](=O)[O-])cc(/C=N/NC(=O)c2ccc(NC(=O)c3ccc(C)cc3)cc2)c1O | inconclusive: 4.61 µM [falling, full curve] | 
CCOC(=O)Cn1c(=O)n(-c2ccccc2OC)c2nc(-c3ccccc3)nc(C(N)=O)c21 | inactive | 
CCc1ccc(-n2c(SCc3nc(-c4cc(OC)ccc4OC)no3)nnc2-c2ccccc2)cc1 | inconclusive: 32.6 µM [falling, partial curve, poor fit] | 
CC1(C)Cc2c(cnn2-c2ccccc2)-c2c1c1ccccc1n2CC(O)CBr (centres undefined) | inactive | 
Cc1ccc(S[C@@H](CCN2CC[C@H](NC(=O)OCc3ccccc3)CCC2=O)c2ccccc2)cc1 | inconclusive: 18.4 µM [falling, single point] | 
Cc1[nH]cnc1C(=O)N/N=C/c1ccc([N+](=O)[O-])s1 | inconclusive: 23.1 µM [falling, single point] | 
NC(=O)[C@@H]1CC2(CC(c3cccc(NC(=O)COc4ccc(Cl)cc4)c3)=NO2)CN1C(=O)COc1ccc(Cl)cc1 (some centres undefined) | inactive | 
O=C(COC(=O)c1cc([N+](=O)[O-])ccc1NCCO)Nc1ccc2c(c1)OCO2 | inconclusive: 16.4 µM [falling, partial curve] | 
Cc1ccc(NC(=O)NNC(=O)Cn2nc(-c3ccccc3)c(-c3ccccc3)c(C#N)c2=O)cc1 | inconclusive: 29.1 µM [falling, single point] | 
O=C(NCc1ccc(OC(F)(F)F)cc1)c1ccc2c(c1)S(=O)(=O)c1ccccc1C2=O | inactive | 
